# Values from PubChem BioAssay AID1053208 (Peter MacCallum Cancer Centre, 2014)
# Assay: 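Synthetic lethal interactions between gene loss and doxorubicin in osteosarcoma cells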 (primary screen)
# Cells: mouse osteosarcoma cells, early-passage culture from an engineered mouse model of fibroblastic bone tumour
# Knock-down reagent: siRNA pool against mouse genes, 40 nM
# Timing: about 120 h (48 h before drug, then 72 h with drug)
# Challenge: doxorubicin 100 nM for 72 h, roughly 30-40% inhibitory dose
# Measurement: 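Viability read as ATP luminescence after 72 h of 100 nM doxorubicin or none, duplicate wells averaged, scaled to non-targeting siRNA, then expressed as robust z-scores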
# Scale: viability z-score with doxorubicin and doxorubicin viability vs non-targeting: higher = more viable cells under doxorubicin; viability z-score without drug: higher = more viable cells with knock-down alone; z-score of drug to no-drug ratio: higher = less drug sensitisation by knock-down
# Rule for the call: 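Called active if knock-down leaves viability unchanged without drug (z within -2 to 2) but lowers it with doxorubicin (z at or under -2)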
# The whole screen tested about 17,000 reagents; shown is a random part of them. Over the whole deposit, 788 (4.7%) got an active call. 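Calls rest on z-score classes alone; an extra cut-off of viability at most 70% of control was not applied to them.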 A number with no mark means an inactive call.
gene knocked down,combined z-score class,viability z-score with doxorubicin,viability z-score without drug,z-score of drug to no-drug ratio,doxorubicin viability vs non-targeting
Eif3m,no change with or without drug,0.67,0,0.79,1
Farp2,no change with or without drug,-1.35,-0.51,-1.01,0.82
Golga4,no change with or without drug,0.79,-1.18,1.91,1.01
Ddost,no change with or without drug,0.34,0.67,0,0.97
Or5t7,no change with or without drug,-1.12,-0.34,-0.9,0.84
Ppp1r17,high cell count without drug only,-0.22,2.36,-1.57,0.92
Stfa3,high cell count with and without drug,2.81,2.19,1.35,1.19
Arhgap32,no change with or without drug,-0.22,0.17,-0.22,0.92
Zfp866,no change with or without drug,0.34,-0.51,0.79,0.97
Upp2,no change with or without drug,-0.9,-0.84,-0.22,0.86
Msh4,low cell count with doxorubicin only (active),-2.02,-1.52,-1.12,0.76
Evi5,no change with or without drug,0.22,1.52,-0.67,0.96
Zfp654,high cell count with doxorubicin only,2.47,0.51,2.25,1.16
Vsx1,no change with or without drug,0.9,1.85,-0.22,1.02
Wwox,no change with or without drug,-0.34,1.01,-0.9,0.91
Zfp112,no change with or without drug,1.12,0.51,0.9,1.04
Fkbp9,high cell count with doxorubicin only,2.02,1.69,1.01,1.12
Kdelr2,no change with or without drug,0,-0.51,0.45,0.94

An excerpt from the list above, as a working copy:
gene knocked down,combined z-score class,viability z-score with doxorubicin,viability z-score without drug,z-score of drug to no-drug ratio,doxorubicin viability vs non-targeting
Ddost,no change with or without drug,0.34,0.67,0,0.97
Or5t7,no change with or without drug,-1.12,-0.34,-0.9,0.84
Ppp1r17,high cell count without drug only,-0.22,2.36,-1.57,0.92
Stfa3,high cell count with and without drug,2.81,2.19,1.35,1.19
Arhgap32,no change with or without drug,-0.22,0.17,-0.22,0.92
Zfp866,no change with or without drug,0.34,-0.51,0.79,0.97
Upp2,no change with or without drug,-0.9,-0.84,-0.22,0.86
Msh4,low cell count with doxorubicin only (active),-2.02,-1.52,-1.12,0.76

The listing continues.
gene knocked down,combined z-score class,viability z-score with doxorubicin,viability z-score without drug,z-score of drug to no-drug ratio,doxorubicin viability vs non-targeting
Mfrp,no change with or without drug,1.57,0.84,1.12,1.08
Gpsm3,high cell count without drug only,1.35,2.19,0,1.06
Cpa5,no change with or without drug,-0.9,-0.67,-0.34,0.86
Ott,no change with or without drug,-0.22,-0.34,0.11,0.92
Rpusd1,no change with or without drug,1.57,-0.17,1.91,1.08
Htr4,no change with or without drug,-0.22,-0.67,0.34,0.92
Cxcl5,no change with or without drug,0.9,0,1.01,1.02
Dsc3,no change with or without drug,-0.22,0.84,-0.67,0.92
Gnb3,no change with or without drug,0.22,1.01,-0.34,0.96
Iqcg,no change with or without drug,-1.8,1.52,-2.59,0.78
Ppp1r15a,no change with or without drug,-0.22,-0.84,0.45,0.92
Faah,no change with or without drug,1.24,-0.17,1.57,1.05
Zfp938,no change with or without drug,-0.67,-1.18,0.22,0.88
Gemin8,no change with or without drug,0.9,0.34,0.79,1.02
Or52z13,no change with or without drug,0.45,0.17,0.45,0.98
Sdsl,no change with or without drug,-1.46,-0.84,-0.9,0.81
Iscu,low cell count with and without drug,-4.05,-4.22,-1.69,0.58
Ralb,no change with or without drug,1.24,0.51,1.01,1.05
Lrsam1,low cell count without drug only,-1.8,-2.02,-0.45,0.78
Numbl,no change with or without drug,-1.12,-1.35,-0.11,0.84
Zfp90,no change with or without drug,1.24,0.34,1.12,1.05
Abcd4,no change with or without drug,0.34,0.17,0.34,0.97
Nt5el,low cell count with doxorubicin only (active),-2.36,-0.17,-2.25,0.73
Gpx4,no change with or without drug,0.67,-0.84,1.46,1
Sorcs2,no change with or without drug,0.9,0.17,0.9,1.02
Alx4,no change with or without drug,1.12,-1.18,2.25,1.04
Prss33,no change with or without drug,0.22,-0.34,0.56,0.96
Mnt,no change with or without drug,0.9,-0.51,1.46,1.02
Babam2,no change with or without drug,0.22,0,0.34,0.96
Oog1,no change with or without drug,-0.11,0.17,-0.11,0.93
Npff,no change with or without drug,0,-1.01,0.9,0.94
Mpzl1,no change with or without drug,-0.79,0,-0.67,0.87
